Assay [1] relates to Escherichia coli. Nature of the assay: Antibacterial activity against Escherichia coli ATCC 25922 assessed as zone of inhibition at 15 mg/ml. In kind it is functional.
For assay [2], the system named is Escherichia coli. Put plainly: Antibacterial activity against Escherichia coli ATCC 25922 assessed as zone of inhibition at 10 mg/ml. The format is functional.

Results on one sequence are retold here after ChEMBL document CHEMBL5030544, “Synthesis, anti-microbial, toxicity and molecular docking studies of N-nitroso-N-phenylhydroxylamine (cupferron) and its derivatives” (Bioorg Med Chem Lett, 2021).

Regarding GENTAMICIN, the figures for the inhibition zone (IZ) in the assay with Escherichia coli [1] and with Escherichia coli [2] were 12 mm and 8 mm, respectively.
